The target in experiment [1] is T1, CRY1 (wild type, co-IP of Figure 4D–F) (mouse) (UniProt P97784).
T1 sequence: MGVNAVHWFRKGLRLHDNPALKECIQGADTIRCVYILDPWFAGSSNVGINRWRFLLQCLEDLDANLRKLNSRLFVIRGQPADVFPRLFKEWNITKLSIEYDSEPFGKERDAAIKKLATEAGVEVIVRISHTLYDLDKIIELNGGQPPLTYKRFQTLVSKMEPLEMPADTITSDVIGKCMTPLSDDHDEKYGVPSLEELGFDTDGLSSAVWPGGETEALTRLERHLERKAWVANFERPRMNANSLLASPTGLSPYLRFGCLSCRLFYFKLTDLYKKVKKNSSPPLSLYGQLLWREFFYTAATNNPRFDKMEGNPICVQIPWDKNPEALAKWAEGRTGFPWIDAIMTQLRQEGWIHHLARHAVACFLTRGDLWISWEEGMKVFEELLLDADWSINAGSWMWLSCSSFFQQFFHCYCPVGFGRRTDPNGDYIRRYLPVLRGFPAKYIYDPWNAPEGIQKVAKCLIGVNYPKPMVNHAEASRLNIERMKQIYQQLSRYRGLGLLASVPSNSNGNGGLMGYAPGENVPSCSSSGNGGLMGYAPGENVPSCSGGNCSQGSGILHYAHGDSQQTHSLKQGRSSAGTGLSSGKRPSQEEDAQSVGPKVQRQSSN
Nature of the experiment: co-IP; CRY1 wild type or R109Q with CLOCK-BMAL1, PER1 or PER2 (Figure 4D–F); cells, tags and bait not told.

Sequences of proteins named here, by UniProt entry; tags and fusion partners are left off.
UniProt O35973: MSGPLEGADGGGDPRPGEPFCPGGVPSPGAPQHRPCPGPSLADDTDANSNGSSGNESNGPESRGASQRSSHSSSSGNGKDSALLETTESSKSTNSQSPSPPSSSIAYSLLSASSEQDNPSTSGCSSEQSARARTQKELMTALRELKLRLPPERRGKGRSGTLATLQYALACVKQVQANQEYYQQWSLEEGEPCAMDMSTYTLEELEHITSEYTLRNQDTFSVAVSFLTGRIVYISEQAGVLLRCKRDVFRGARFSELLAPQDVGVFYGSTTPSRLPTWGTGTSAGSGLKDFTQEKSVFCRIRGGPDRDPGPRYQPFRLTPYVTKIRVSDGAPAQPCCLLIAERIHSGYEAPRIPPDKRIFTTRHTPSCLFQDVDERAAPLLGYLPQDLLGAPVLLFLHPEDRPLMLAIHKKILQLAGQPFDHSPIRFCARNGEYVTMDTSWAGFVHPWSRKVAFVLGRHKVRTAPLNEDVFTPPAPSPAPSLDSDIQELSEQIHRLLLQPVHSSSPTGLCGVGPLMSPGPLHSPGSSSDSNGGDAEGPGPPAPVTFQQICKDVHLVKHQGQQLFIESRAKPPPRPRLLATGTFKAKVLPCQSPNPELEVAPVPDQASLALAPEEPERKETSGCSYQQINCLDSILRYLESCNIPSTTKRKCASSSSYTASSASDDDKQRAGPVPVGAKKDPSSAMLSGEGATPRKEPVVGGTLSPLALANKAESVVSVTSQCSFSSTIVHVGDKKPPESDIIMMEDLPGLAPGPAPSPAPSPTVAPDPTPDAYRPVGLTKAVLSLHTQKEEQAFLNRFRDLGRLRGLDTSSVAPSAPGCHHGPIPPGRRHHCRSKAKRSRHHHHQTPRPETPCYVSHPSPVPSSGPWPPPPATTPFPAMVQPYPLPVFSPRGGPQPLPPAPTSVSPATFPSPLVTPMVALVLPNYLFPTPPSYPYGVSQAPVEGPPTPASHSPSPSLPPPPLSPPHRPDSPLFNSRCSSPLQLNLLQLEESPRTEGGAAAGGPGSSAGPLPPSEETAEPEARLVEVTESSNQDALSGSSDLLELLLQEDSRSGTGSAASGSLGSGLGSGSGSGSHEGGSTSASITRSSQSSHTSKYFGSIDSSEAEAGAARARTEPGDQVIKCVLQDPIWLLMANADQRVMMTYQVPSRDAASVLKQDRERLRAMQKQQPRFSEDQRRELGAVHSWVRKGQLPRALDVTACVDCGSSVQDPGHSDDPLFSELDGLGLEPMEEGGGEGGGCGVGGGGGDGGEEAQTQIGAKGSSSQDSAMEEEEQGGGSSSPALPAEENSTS

Experiment [2] has as its target T2, CRY1 R109Q (mouse) (UniProt P97784).
T2 sequence: T1 sequence with R109Q
Described as above.

Where a chain is given by its changes, count along the chain named. These are yes or no findings as the source states them, for the method shown. Binding seen in cells or lysates may run through a third protein. Some entries that bind do so weakly or less than the wild type.

For PER1 (from UniProt O35973 1-1291), the binding result in experiment [1] and in experiment [2] was “binds” in each case.

(Values after paper PMC4157330, “Molecular assembly of the period-cryptochrome circadian transcriptional repressor complex” (eLife, 2014).)
